Results as given in the supplement of paper PMC12889115.
The other results are listed elsewhere or left out. Values are raw readings; no control value is given beside them.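 First-pass screen: polymyxin B was added at a level that permeabilizes the Salmonella outer membrane while sparing the inner membrane. DMSO wells, with and without polymyxin B, defined maximum growth. Because plates differed from one another, each plate's data were ranked separately and the compounds with the lowest OD600 were carried forward as hits.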

System: Salmonella enterica serovar Typhimurium SL1344
Experiment: bacterial growth OD600 after 18 h with compound and polymyxin B; higher = more bacterial growth (less inhibition)
Settings: 50 µM, Mueller-Hinton broth

Row | Structure (SMILES) | bacterial growth OD600 (polymyxin B 1 µg/mL) | bacterial growth OD600 (polymyxin B 0.75 µg/mL)
1 | COc1ccc(NC(=O)CCC2CCCN(C(=O)c3cc(OC)ccc3OC)C2)c(C)c1 (centres undefined) | 1.04 | 
2 | CN(C)c1ncc2c(n1)CCCC2NC(=O)CCc1cnccn1 (centres undefined) | 1.11 | 
3 | CCCc1cc(C(=O)N2CCC3(CC2)c2ccccc2[C@@H](NC(=O)C(C)C)[C@@H]3OCCOC)n(C)n1 |  | 0.778
4 | COc1cccc(CC2=NOC(C(=O)NCc3ccc(C(F)(F)F)cc3F)C2)c1 (centres undefined) |  | 0.962
5 | CCC1C(=O)NCCN1C(=O)c1csc2nc(-c3ccc(F)cc3)cn12 (centres undefined) | 1.11 | 
6 | Cc1csc(SCC(=O)NCc2cccnc2Oc2ccccc2)n1 | 0.871 | 
7 | Cc1ccc2nc(C)cc(C(=O)N3CCC4(CC3)CC4C(=O)NCC3(c4ccccc4)CCCC3)c2c1 (centres undefined) |  | 0.762
8 | Cc1ccccc1CC(C1CCN(C(=O)c2ccc3[nH]ccc3c2)CC1)N(C)C(=O)Cn1cccn1 (centres undefined) |  | 0.758
9 | O=C(CCc1ccccc1)Nc1ccc(N2CCC(NCc3ccc4ncccc4c3)CC2)cc1 |  | 0.836

2 entries from above, tab-delimited:
Row	Structure (SMILES)	bacterial growth OD600 (polymyxin B 1 µg/mL)	bacterial growth OD600 (polymyxin B 0.75 µg/mL)
2	CN(C)c1ncc2c(n1)CCCC2NC(=O)CCc1cnccn1 (centres undefined)	1.11	
9	O=C(CCc1ccccc1)Nc1ccc(N2CCC(NCc3ccc4ncccc4c3)CC2)cc1		0.836
